These are yes or no findings as the source states them, for the method shown. In cells and extracts the contact can be indirect. Some entries that bind do so weakly or less than the wild type. For some of these results: Tags and fused reporters may be left off the sequences shown.

Protein sequences, listed by entry. Tags and fused reporters are not part of them.
UniProt Q9UDY8: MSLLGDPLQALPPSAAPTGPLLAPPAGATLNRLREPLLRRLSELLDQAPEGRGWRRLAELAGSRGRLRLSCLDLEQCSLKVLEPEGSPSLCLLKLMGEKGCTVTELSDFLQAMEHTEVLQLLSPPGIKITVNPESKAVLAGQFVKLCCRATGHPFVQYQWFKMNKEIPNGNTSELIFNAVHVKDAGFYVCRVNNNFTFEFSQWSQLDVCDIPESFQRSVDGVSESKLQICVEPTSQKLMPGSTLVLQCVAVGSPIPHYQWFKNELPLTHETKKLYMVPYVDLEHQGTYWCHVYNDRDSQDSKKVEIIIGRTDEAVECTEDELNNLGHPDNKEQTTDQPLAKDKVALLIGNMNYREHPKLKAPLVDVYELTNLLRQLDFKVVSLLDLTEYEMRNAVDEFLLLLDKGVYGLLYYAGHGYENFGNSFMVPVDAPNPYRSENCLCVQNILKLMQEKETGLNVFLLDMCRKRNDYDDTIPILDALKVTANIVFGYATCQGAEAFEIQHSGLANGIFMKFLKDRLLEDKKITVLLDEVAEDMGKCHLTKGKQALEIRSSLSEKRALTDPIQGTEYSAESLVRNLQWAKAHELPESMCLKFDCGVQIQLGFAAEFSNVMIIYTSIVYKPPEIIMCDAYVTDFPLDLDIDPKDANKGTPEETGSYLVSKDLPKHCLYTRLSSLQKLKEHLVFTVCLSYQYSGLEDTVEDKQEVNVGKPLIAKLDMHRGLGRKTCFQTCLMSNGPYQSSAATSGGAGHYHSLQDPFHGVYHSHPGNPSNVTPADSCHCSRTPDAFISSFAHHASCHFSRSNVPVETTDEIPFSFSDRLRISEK

In assay [1] the target is MALT1 full-length fused to mEos3.2 (human) (UniProt Q9UDY8). The assay is described as follows: FRET or BRET; DAmFRET in HEK293T cells: protein fused to mEos3.2, 48 hr after transfection, cells fixed in 4% PFA, photoconverted, AmFRET against expression level by flow cytometry. (In general: In BRET a luciferase serves as donor, and the signal depends on an acceptor being close.)

Assay [2] has as its target MALT1 full-length fused to mEos3.1 (human) (UniProt Q9UDY8). In words: FRET or BRET; DAmFRET (Distributed Amphifluoric FRET) in living S. cerevisiae: protein fused to mEos3.1, GAL promoter, about 16 hr in galactose, part of mEos3.1 photoconverted to the acceptor form, AmFRET against expression level by flow cytometry.
Assay [3] deals with T1, BCL10 R36E full-length fused to mEos3.1 (human), O95999.
T1 chain: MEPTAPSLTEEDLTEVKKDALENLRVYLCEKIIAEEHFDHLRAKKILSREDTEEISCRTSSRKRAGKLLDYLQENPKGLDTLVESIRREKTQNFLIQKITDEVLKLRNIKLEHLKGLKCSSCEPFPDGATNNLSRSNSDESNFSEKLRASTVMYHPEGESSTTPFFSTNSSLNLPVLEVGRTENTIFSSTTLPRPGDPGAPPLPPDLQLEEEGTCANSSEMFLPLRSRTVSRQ
The description is as above. As to conditions: remark: other sources report otherwise.

Assay [4] concerns the target BCL10 E53R full-length fused to mEos3.1 (human) (UniProt O95999). The description is as above.
The target of assay [5] is BCL10 R58L full-length fused to mEos3.1 (human) (UniProt O95999). The description is as above.
Assay [6] addresses BCL10 R58Q full-length fused to mEos3.1 (human) (UniProt O95999). The assay is described as above.
Assay [7] deals with CARD9 CARD R18W fused to mEos3.1 (human) (UniProt Q9H257). The description is as above.
Assay [8] concerns the target CARD9 CARD R57H fused to mEos3.1 (human) (UniProt Q9H257). Described as above.
The target in assay [9] is CARD9 CARD R35Q fused to mEos3.1 (human) (UniProt Q9H257). The assay is described as above.
Assay [10] addresses CARD9 CARD G72S fused to mEos3.1 (human) (UniProt Q9H257). The assay is described as above.

With “MALT1 full-length fused to mEos3.2 (from UniProt Q9UDY8 1-824)”, in [1], the binding result is on record as “no binding”.

Consider “MALT1 full-length fused to mEos3.1 (from UniProt Q9UDY8 1-824)”, for which the binding entry in assay [2] is given as “no binding”.

B1: BCL10 R36E full-length fused to mEos3.1, O95999 1-233 (protein)
chain: MEPTAPSLTEEDLTEVKKDALENLRVYLCEKIIAEEHFDHLRAKKILSREDTEEISCRTSSRKRAGKLLDYLQENPKGLDTLVESIRREKTQNFLIQKITDEVLKLRNIKLEHLKGLKCSSCEPFPDGATNNLSRSNSDESNFSEKLRASTVMYHPEGESSTTPFFSTNSSLNLPVLEVGRTENTIFSSTTLPRPGDPGAPPLPPDLQLEEEGTCANSSEMFLPLRSRTVSRQ
For B1, the binding result in assay [3] is “binds”.

B2: BCL10 E53R full-length fused to mEos3.1 (protein, UniProt O95999 1-233)
chain: MEPTAPSLTEEDLTEVKKDALENLRVYLCEKIIAERHFDHLRAKKILSREDTREISCRTSSRKRAGKLLDYLQENPKGLDTLVESIRREKTQNFLIQKITDEVLKLRNIKLEHLKGLKCSSCEPFPDGATNNLSRSNSDESNFSEKLRASTVMYHPEGESSTTPFFSTNSSLNLPVLEVGRTENTIFSSTTLPRPGDPGAPPLPPDLQLEEEGTCANSSEMFLPLRSRTVSRQ
As for B2, in [4], the binding result is given as “no binding”.

B3: BCL10 R58L full-length fused to mEos3.1 (protein, UniProt O95999 1-233)
chain: MEPTAPSLTEEDLTEVKKDALENLRVYLCEKIIAERHFDHLRAKKILSREDTEEISCLTSSRKRAGKLLDYLQENPKGLDTLVESIRREKTQNFLIQKITDEVLKLRNIKLEHLKGLKCSSCEPFPDGATNNLSRSNSDESNFSEKLRASTVMYHPEGESSTTPFFSTNSSLNLPVLEVGRTENTIFSSTTLPRPGDPGAPPLPPDLQLEEEGTCANSSEMFLPLRSRTVSRQ
With B3, the binding result in [5] is “binds”.

B4: BCL10 R58Q full-length fused to mEos3.1 (protein, UniProt O95999 1-233)
chain: MEPTAPSLTEEDLTEVKKDALENLRVYLCEKIIAERHFDHLRAKKILSREDTEEISCQTSSRKRAGKLLDYLQENPKGLDTLVESIRREKTQNFLIQKITDEVLKLRNIKLEHLKGLKCSSCEPFPDGATNNLSRSNSDESNFSEKLRASTVMYHPEGESSTTPFFSTNSSLNLPVLEVGRTENTIFSSTTLPRPGDPGAPPLPPDLQLEEEGTCANSSEMFLPLRSRTVSRQ
For B4, the binding result in assay [6] was “binds”.

B5: CARD9 CARD R18W fused to mEos3.1 (domain or fragment, UniProt Q9H257 6-98)
chain: NDDECWSVLEGFWVTLTSVIDPSRITPYLRQCKVLNPDDEEQVLSDPNLVIRKRKVGVLLDILQRTGHKGYVAFLESLELYYPQLYKKVTGKE
On to B5, for which the binding entry in assay [7] is recorded as “no binding”.

B6: CARD9 CARD R57H fused to mEos3.1 (domain or fragment, UniProt Q9H257 6-98)
chain: NDDECWSVLEGFRVTLTSVIDPSRITPYLRQCKVLNPDDEEQVLSDPNLVIHKRKVGVLLDILQRTGHKGYVAFLESLELYYPQLYKKVTGKE
Regarding B6, in assay [8], the binding result is reported as “no binding”.

B7: CARD9 CARD R35Q fused to mEos3.1 (domain or fragment, UniProt Q9H257 6-98)
chain: NDDECWSVLEGFRVTLTSVIDPSRITPYLQQCKVLNPDDEEQVLSDPNLVIRKRKVGVLLDILQRTGHKGYVAFLESLELYYPQLYKKVTGKE
For the molecule B7, the binding entry in [9] is “no binding”.

B8: CARD9 CARD G72S fused to mEos3.1 (domain or fragment, UniProt Q9H257 6-98)
chain: NDDECWSVLEGFRVTLTSVIDPSRITPYLRQCKVLNPDDEEQVLSDPNLVIRKRKVGVLLDILQRTSHKGYVAFLESLELYYPQLYKKVTGKE
As to B8, in assay [10], the binding entry is “no binding”.

These data come from article PMC9342958.
